In patent US20260234276A1:
No constants are given. Whether binding was seen depends on the method and setting. Some results given as binding are weak or reduced against the parent protein; the word gives no strength.

Chains of the proteins cited; added tags and fusions are not shown. Lines headed by an entry give the natural chain unless they say otherwise; changes in a name come on top.
UniProt P51685: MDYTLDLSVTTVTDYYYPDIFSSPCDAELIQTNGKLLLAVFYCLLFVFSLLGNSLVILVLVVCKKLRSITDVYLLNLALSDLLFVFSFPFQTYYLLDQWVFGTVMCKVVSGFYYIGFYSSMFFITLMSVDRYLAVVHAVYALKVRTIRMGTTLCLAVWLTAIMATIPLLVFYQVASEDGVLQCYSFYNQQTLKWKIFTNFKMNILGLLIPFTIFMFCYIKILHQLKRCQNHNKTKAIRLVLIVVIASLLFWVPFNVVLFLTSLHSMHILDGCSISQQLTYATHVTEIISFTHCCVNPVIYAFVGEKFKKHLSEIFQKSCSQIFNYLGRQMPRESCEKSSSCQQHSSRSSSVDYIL

Experiments:
[1] = target: pm5 (human); experiment: ELISA on coated peptide [cont.]
[2] = target: pm3 (human); experiment: ELISA on coated peptide [cont.]
[3] = target: pm6 (human); experiment: ELISA on coated peptide [cont.]
[4] = target: pm8 (human); experiment: ELISA on coated peptide [cont.]
[5] = target: human CCR8 (human) (UniProt P51685); experiment: flow cytometry, hCCR8 transfected CHO cells against wild-type CHO cells
[6] = target: human CCR8 (human) (UniProt P51685); experiment: competition flow cytometry on hCCR8 transfected CHO cells; blocked ligand CCL1-AF647 [cont.]
[7] = target: human CCR8 (human) (UniProt P51685); experiment: flow cytometry, hCCR8 transfected CHOK1 cells versus wild-type CHO

Measured: binding

B1: 3-52 (antibody, V domains shown)
VH: QVQLQQPGSELVRPGASVKLSCKASGYTFTSYWMHWVKQRPGQGLEWIGNIWPGSASTNYDEKFKNKATLTVDTSSSTAYMQLSSLTSEDSAVYYCIRGGKGAMDYWSQGTSVTVSS
VL: DVVMTQIPLSLPVSLGDQASISCRSSQSLENSYGNTYLNWYLQKPGQSPQLLIYRVSNRFSGVLDRFSGSGSGTDFTLKISRVEAEDLGVYFCLQVTHVPPTFGAGTKLELK
binds: all assays above
